# Test results reported in article doi:10.1101/2024.10.07.616933.
# The chains behind the UniProt entries cited, without tags or fusion partners. Where a name states a change or a piece, a line headed by the entry shows the natural chain unless it says otherwise.
# UniProt Q96SW2: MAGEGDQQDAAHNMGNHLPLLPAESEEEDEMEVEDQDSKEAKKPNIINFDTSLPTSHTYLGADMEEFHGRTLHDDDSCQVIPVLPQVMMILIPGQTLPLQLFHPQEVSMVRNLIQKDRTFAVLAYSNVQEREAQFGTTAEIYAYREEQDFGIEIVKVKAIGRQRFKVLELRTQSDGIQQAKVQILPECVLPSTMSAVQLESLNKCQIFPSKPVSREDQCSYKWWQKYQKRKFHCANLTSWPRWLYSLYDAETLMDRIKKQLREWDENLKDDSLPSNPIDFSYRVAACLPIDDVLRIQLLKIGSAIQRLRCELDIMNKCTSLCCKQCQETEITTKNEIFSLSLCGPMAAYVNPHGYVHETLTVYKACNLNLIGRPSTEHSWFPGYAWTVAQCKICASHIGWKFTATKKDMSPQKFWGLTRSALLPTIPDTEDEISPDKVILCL
# UniProt Q16531: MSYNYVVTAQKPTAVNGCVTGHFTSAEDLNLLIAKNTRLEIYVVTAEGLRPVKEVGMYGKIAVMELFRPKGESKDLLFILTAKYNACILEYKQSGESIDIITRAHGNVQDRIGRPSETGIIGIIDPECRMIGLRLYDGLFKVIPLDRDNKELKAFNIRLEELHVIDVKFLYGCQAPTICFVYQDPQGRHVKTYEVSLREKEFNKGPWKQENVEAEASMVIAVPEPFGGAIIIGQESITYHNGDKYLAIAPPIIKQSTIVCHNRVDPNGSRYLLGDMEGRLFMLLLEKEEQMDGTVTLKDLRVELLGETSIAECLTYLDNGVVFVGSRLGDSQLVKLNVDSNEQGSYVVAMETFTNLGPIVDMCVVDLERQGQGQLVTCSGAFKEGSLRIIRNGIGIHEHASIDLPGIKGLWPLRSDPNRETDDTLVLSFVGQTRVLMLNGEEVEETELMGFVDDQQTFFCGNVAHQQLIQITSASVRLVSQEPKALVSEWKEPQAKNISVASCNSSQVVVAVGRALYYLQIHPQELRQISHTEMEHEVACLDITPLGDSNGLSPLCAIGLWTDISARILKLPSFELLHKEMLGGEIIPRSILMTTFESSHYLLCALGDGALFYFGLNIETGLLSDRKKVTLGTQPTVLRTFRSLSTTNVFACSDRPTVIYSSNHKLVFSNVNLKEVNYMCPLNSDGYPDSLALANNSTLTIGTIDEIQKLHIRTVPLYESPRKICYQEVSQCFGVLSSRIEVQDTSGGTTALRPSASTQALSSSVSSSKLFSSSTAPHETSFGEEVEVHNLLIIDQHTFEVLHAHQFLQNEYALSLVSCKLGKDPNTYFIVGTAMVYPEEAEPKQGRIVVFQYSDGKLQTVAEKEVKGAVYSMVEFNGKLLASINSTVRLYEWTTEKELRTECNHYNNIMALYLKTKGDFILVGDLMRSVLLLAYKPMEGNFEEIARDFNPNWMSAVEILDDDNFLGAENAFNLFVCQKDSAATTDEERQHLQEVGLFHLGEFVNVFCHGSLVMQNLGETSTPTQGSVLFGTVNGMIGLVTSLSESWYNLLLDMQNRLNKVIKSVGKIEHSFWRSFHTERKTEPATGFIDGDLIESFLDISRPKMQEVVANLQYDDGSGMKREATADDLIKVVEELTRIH
# Results are given in words; binding and its absence hold for the method and conditions named. For some assays here: Binding seen in cells or lysates may run through a third protein. Tags and fused reporters may be left off the sequences shown.
# Assays:
# [1] = biological target: 6His-tagged CRBN/DDB1 complex (MRT-CRBN-B11/DDB1-B05) (human) (UniProt Q96SW2+Q16531); experiment: AlphaScreen or HTRF
# HaloTag-CRBN (human) = HaloTag-CRBN (human) (UniProt Q96SW2); experiment: FRET or BRET
binding [1],binding (HaloTag-CRBN (human)),Binder
no binding,,"MRT-Vav1-E20: GST-TEV-(Vav1 SH3 domain K782-845 with mutations R798M, S799R) (domain or fragment, UniProt P15498 782-845) KYFGTAKARYDFCARDMRELSLKEGDIIKILNKKGQQGWWRGEIYGRVGWFPANYVEEDYSEYC"
,no binding (tested: Cpd. 6 up to 10 μM),"full-length VAV1 RT-loop mutant (R798M, S799R), NanoLuc fusion (protein, UniProt P15498 1-845) MELWRQCTHWLIQCRVLPPSHRVTWDGAQVCELAQALRDGVLLCQLLNNLLPHAINLREVNLRPQMSQFLCLKNIRTFLSTCCEKFGLKRSELFEAFDLFDVQDFGKVIYTLSALSWTPIAQNRGIMPFPTEEESVGDEDIYSGLSDQIDDTVEEDEDLYDCVENEEAEGDEIYEDLMRSEPVSMPPKMTEYDKRCCCLREIQQTEEKYTDTLGSIQQHFLKPLQRFLKPQDIEIIFINIEDLLRVHTHFLKEMKEALGTPGAANLYQVFIKYKERFLVYGRYCSQVESASKHLDRVAAAREDVQMKLEECSQRANNGRFTLRDLLMVPMQRVLKYHLLLQELVKHTQEAMEKENLRLALDAMRDLAQCVNEVKRDNETLRQITNFQLSIENLDQSLAHYGRPKIDGELKITSVERRSKMDRYAFLLDKALLICKRRGDSYDLKDFVNLHSFQVRDDSSGDRDNKKWSHMFLLIEDQGAQGYELFFKTRELKKKWMEQFEMAISNIYPENATANGHDFQMFSFEETTSCKACQMLLRGTFYQGYRCHRCRASAHKECLGRVPPCGRHGQDFPGTMKKDKLHRRAQDKKRNELGLPKMEVFQEYYGLPPPPGAIGPFLRLNPGDIVELTKAEAEQNWWEGRNTSTNEIGWFPCNRVKPYVHGPPQDLSVHLWYAGPMERAGAESILANRSDGTFLVRQRVKDAAEFAISIKYNVEVKHIKIMTAEGLYRITEKKAFRGLTELVEFYQQNSLKDCFKSLDTTLQFPFKEPEKRTISRPAVGSTKYFGTAKARYDFCARDMRELSLKEGDIIKILNKKGQQGWWRGEIYGRVGWFPANYVEEDYSEYC"
no binding,,"MRT-Vav2SH3-E01: GST-TEV-(Vav2 SH3 domain R816-878Q) (domain or fragment, UniProt P52735 816-878) RVIGTAVARYNFAARDMRELSLREGDVVRIYSRIGGDQGWWKGETNGRIGWFPSTYVEEEGIQ"
no binding,,"MRT-Vav3 SH3-E01: GST-GGG-TEV-Vav3(K788-847E) (domain or fragment, UniProt Q9UKW4 788-847) KVLGIAIARYDFCARDMRELSLLKGDVVKIYTKMSANGWWRGEVNGRVGWFPSTYVEEDE"
no binding,,"MRT-Vav3 SH3-E02: GST-GGG-TEV-Vav3(K788-847E, Y818L, T819N, M821K, S822G, A823Q, N824Q) (domain or fragment, UniProt Q9UKW4 788-847) KVLGIAIARYDFCARDMRELSLLKGDVVKILNKKGQQGWWRGEVNGRVGWFPSTYVEEDE"
